Earlier results, collected in article PMC5700124 (Scientific Reports, 2017).
Read-outs that look alike come from different tables or passages of the source.

Test system: α2 adrenoceptor
Conditions: cerebral cortex, pH 7.4, 25.0 °C, mg^2+ 0, blocking of NS phentolamine 10 μM, cited from earlier work

## COC(=O)[C@@H]1[C@H]2C[C@H]3c4[nH]c5ccccc5c4CCN3C[C@@H]2CC[C@@H]1O [[^3H]yohimbine]
Ref Brown et al.[44]
  Bmax: 121 fmol/mg protein
Ref Brown et al.[45]
  Bmax: 121 fmol/mg protein
